Among all 340,000 compounds or so, about 170 (0.05%) were called active. Inconclusive results, whose numbers are uncertain, are shown with a selection of clear calls. Calls come from the whole dose curve; as a rule, active = well fitted inhibition curve with a large enough effect in the signal ratio, with a control signal flat (not every such curve was filed as active); inconclusive = small, poorly fitted or top-dose-only effect, or effect the other way, or a change in a side signal; inactive = flat fitted curve, though single readings scatter; the % refers to the signal ratio. Potencies beside an inconclusive call are fits to weak or partial responses and may not hold up.
Assay: qHTS Assay to Find Inhibitors of Chronic Active B-Cell Receptor Signaling;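 for activity change, negative = inhibition: plate controls were basal doxycycline-induced cells for no effect and cells given 10 µM MG132 for full effect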
Details: ABC-DLBCL IkBa-CBG/CBR reporter, luminescence ratio (green luciferase fused to IkBa over red control in TMD8 lymphoma cells), 4 h; activity change, negative = inhibition: at 46.1 µM (top of the series) unless noted
Procedure, shortened: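 Concentration-response series (up to 46 uM) were applied to TMD8 dual-reporter cells for 4 h at 37C with doxycycline. Green/red ratio, after filter-overlap correction, defined %Activity; red signal alone was normalised to basal cells and zero luminescence.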
Potency is the fitted concentration of half-maximal effect.

SMILES | activity change, negative = inhibition | Potency
COc1ccc(OC)c(S(=O)(=O)Nc2cccnc2)c1 | inconclusive: 15.8% | 
O=C(Nc1ccc(N2CCCCC2)cc1)C(Cl)c1ccccc1 (stereo not drawn) | inconclusive: -16.5% | 
Cc1ccccc1CN(C)C(=O)COC(=O)c1ccc2[nH]c(C)c(C)c2c1 | inconclusive: -5.52% | 
COC(=O)C1=C(C)N(c2ccccc2)/C(=C/c2ccco2)C1=O | inactive: -16.4% | 
CCOC(=O)c1c(/N=C/C2=C(O)CC(C)(C)CC2=O)sc(C)c1C | inconclusive: 0.29% | 
CC1CCN(C(=O)CSc2nc3ccccc3[nH]2)CC1 | inconclusive: -2.28% | 
COc1cccc(NC(=O)CSc2nnnn2C2CCCCC2)c1 |  | inconclusive: 20 µM [falling, partial curve, poor fit]
O=C(/C=C/Nc1ccccc1)c1ccc(Cl)cc1Cl | inconclusive: -26.9% | 
COc1cc(C(=O)NC(C)CCc2ccccc2)cc(OC)c1OC (stereo not drawn) | inconclusive: -0.648% | 
CCOC(=O)C(=O)Nc1nnc(C2CCCCC2)s1 | inconclusive: 13.1% | 
O=C(COC(=O)c1ncc(Cl)c(Cl)c1Cl)NCCc1ccccc1 | inconclusive: -0.112% | 
COc1ccccc1NC(=O)Cn1c(=O)oc2ccccc21 |  | inconclusive: 29.1 µM [falling, single point]
COc1ccc(/C=C/C(=O)NC(C)CCc2ccccc2)cc1OC (stereo not drawn) | inconclusive: -19.8% | 
CC1CCC(NC(=O)c2ccc(CS(=O)(=O)c3ccc(Cl)cc3)o2)CC1 (stereo not drawn) | inactive: 9.13% | 
CC(=O)c1sc(NC(=O)C2CCN(C(=O)c3ccccc3C)CC2)nc1-c1ccccc1 |  | inconclusive: 29.1 µM [falling, single point]
O=C(/C=C/c1c(F)cccc1Cl)N1CCOCC1 | inactive: -14% | 
Cc1cc(C(=O)CSc2nc(N)cc(=O)[nH]2)ccc1F | inactive: 1.8% | 
CCC(=O)Nc1ccc(-n2nnnc2SCC(=O)NNC(=O)c2ccco2)cc1 | inconclusive: 5.44% | 
CCCCn1c(CCCNC(=O)CC)nc2ccccc21 | inconclusive: -9.66% | 
O=C(CN1C(=O)NC(c2ccc(F)cc2)C1=O)NC1CCCCC1 (stereo not drawn) | inactive: -0.847% | 
Cc1ccccc1OCC(=O)N1CCC2(CC1)CC(=O)c1ccccc1O2 | inactive: -12.3% | 

SMILES | activity change, negative = inhibition | Potency
CCOC(=O)C1CCN(C(=O)C2CCCN(S(=O)(=O)c3ccc(OCC)c(Cl)c3)C2)CC1 (stereo not drawn) | inactive: 2.28% | 
CN1CCN(C(=O)c2ccc(-c3cccs3)s2)CC1 | inactive: 0.909% | 
O=C(O)c1cccc(Cn2c(Cl)c(/C=N/NC(=O)c3ccccc3O)sc2=O)c1 |  | inconclusive: 25.1 µM [falling, partial curve]
Oc1ccc(Cl)cc1CNCc1ccc(Cl)cc1 | inconclusive: 7.57% | 
CCC(CO)NC(=O)c1cc2c(s1)CCC2 (stereo not drawn) | inconclusive: 10.4% | 
CCN(CC)CCNC(=O)CN1N=C(c2ccc(OC)cc2)CCC1=O |  | inconclusive: 35.5 µM [falling, single point]
O=C(O)c1cccc(Nc2nc(-c3ccccc3)nc3ccccc23)c1 | inactive: -0.38% | 
O=S(=O)(c1ccc(F)cc1)N(CCO)CC(O)Cn1c2ccccc2c2ccccc21 (stereo not drawn) | inconclusive: -10.6% | 
O=c1[nH]n2c(-c3ccccc3)nc(O)c2c2ccccc12 |  | inconclusive: 3.98 µM [falling, partial curve]
O=C(Cc1ccccn1)c1ccc(O)cc1O | inconclusive: 10.8% | 
Cc1ccc(CNC(=O)c2ccc(C#CC(C)(C)O)s2)cc1 | inconclusive: -2.18% | 
CCc1nnc(NC(=O)CSc2ccc(-c3nc4ccccc4[nH]3)cn2)s1 | inconclusive: 1.69% | 
CN1C(=O)C(/C(N)=N/NC(=O)c2ccccc2)C2CC1(C)Oc1ccccc12 (stereo not drawn) | inconclusive: 2.63% | 
COc1ccccc1N1CCN(C(=O)c2sc3nc(-c4ccc(F)cc4)cn3c2C)CC1 |  | inconclusive: 23.1 µM [falling, partial curve, poor fit]
C(#Cc1ccccc1)Cn1nnc2ccccc21 | inconclusive: 2.76% | 
CCOc1ccccc1OCC(=O)Nc1cc2c(cc1C(=O)O)OCCCO2 |  | inconclusive: 11.2 µM [falling, partial curve, poor fit]
Cc1ccc(C)c(N(CC(=O)NCc2ccccc2)C(=O)c2csnn2)c1 | inconclusive: -7.23% | 
COc1ccc(C(=O)Nc2ccc(Cl)cc2C(=O)N2CCCC(C)C2)cc1 (stereo not drawn) | inconclusive: 15.3% | 
O=C(CCCN1C(=O)/C(=C/c2ccccc2Cl)SC1=S)N1CCCC1 |  | inconclusive: 15.8 µM [falling, partial curve]
COc1cc(CN2CCc3ccccc3C2)ccc1O | inconclusive: 5.27% | 
O=C(CCC(=O)OCC(=O)c1ccc(Br)cc1)Nc1ccc(Br)c2cccnc12 |  | inconclusive: 5.17 µM [falling, partial curve]

Sorted by molecular weight (falling): part of the list above.
SMILES | activity change, negative = inhibition | Potency
O=C(CCC(=O)OCC(=O)c1ccc(Br)cc1)Nc1ccc(Br)c2cccnc12 |  | inconclusive: 5.17 µM [falling, partial curve]
CCOC(=O)C1CCN(C(=O)C2CCCN(S(=O)(=O)c3ccc(OCC)c(Cl)c3)C2)CC1 (stereo not drawn) | inactive: 2.28% | 
COc1ccccc1N1CCN(C(=O)c2sc3nc(-c4ccc(F)cc4)cn3c2C)CC1 |  | inconclusive: 23.1 µM [falling, partial curve, poor fit]
O=S(=O)(c1ccc(F)cc1)N(CCO)CC(O)Cn1c2ccccc2c2ccccc21 (stereo not drawn) | inconclusive: -10.6% | 
O=C(O)c1cccc(Cn2c(Cl)c(/C=N/NC(=O)c3ccccc3O)sc2=O)c1 |  | inconclusive: 25.1 µM [falling, partial curve]
CCC(=O)Nc1ccc(-n2nnnc2SCC(=O)NNC(=O)c2ccco2)cc1 | inconclusive: 5.44% | 
CCc1nnc(NC(=O)CSc2ccc(-c3nc4ccccc4[nH]3)cn2)s1 | inconclusive: 1.69% | 
O=C(CCCN1C(=O)/C(=C/c2ccccc2Cl)SC1=S)N1CCCC1 |  | inconclusive: 15.8 µM [falling, partial curve]
COc1ccc(C(=O)Nc2ccc(Cl)cc2C(=O)N2CCCC(C)C2)cc1 (stereo not drawn) | inconclusive: 15.3% | 
Cc1ccc(C)c(N(CC(=O)NCc2ccccc2)C(=O)c2csnn2)c1 | inconclusive: -7.23% | 
CN1C(=O)C(/C(N)=N/NC(=O)c2ccccc2)C2CC1(C)Oc1ccccc12 (stereo not drawn) | inconclusive: 2.63% | 
Cc1ccccc1OCC(=O)N1CCC2(CC1)CC(=O)c1ccccc1O2 | inactive: -12.3% | 
CCN(CC)CCNC(=O)CN1N=C(c2ccc(OC)cc2)CCC1=O |  | inconclusive: 35.5 µM [falling, single point]
O=C(O)c1cccc(Nc2nc(-c3ccccc3)nc3ccccc23)c1 | inactive: -0.38% | 
O=C(CN1C(=O)NC(c2ccc(F)cc2)C1=O)NC1CCCCC1 (stereo not drawn) | inactive: -0.847% | 
Cc1ccc(CNC(=O)c2ccc(C#CC(C)(C)O)s2)cc1 | inconclusive: -2.18% | 
CCCCn1c(CCCNC(=O)CC)nc2ccccc21 | inconclusive: -9.66% | 
Oc1ccc(Cl)cc1CNCc1ccc(Cl)cc1 | inconclusive: 7.57% | 
O=c1[nH]n2c(-c3ccccc3)nc(O)c2c2ccccc12 |  | inconclusive: 3.98 µM [falling, partial curve]
CCC(CO)NC(=O)c1cc2c(s1)CCC2 (stereo not drawn) | inconclusive: 10.4% | 
C(#Cc1ccccc1)Cn1nnc2ccccc21 | inconclusive: 2.76% | 
O=C(Cc1ccccn1)c1ccc(O)cc1O | inconclusive: 10.8% | 

Following part

SMILES | activity change, negative = inhibition | Potency
CC1CCC/C(=C\Nc2ccc3c(c2)OCO3)C1=O (stereo not drawn) | inactive: -0.52% | 
Clc1ccc(/C=C/c2nc(Cl)c(-c3ccc(Cl)cc3)c(Cl)n2)cc1 | inconclusive: 0.284% | 
Nc1cc(Oc2ccc(F)cc2F)cc([N+](=O)[O-])c1 | inconclusive: -3.08% | 
CCN(CC)S(=O)(=O)c1ccc(N/N=C(\C)c2ccncc2)nc1 | inconclusive: 12.8% | 
COc1ccc(-c2sc3ccc(OC)cc3c2C#Cc2ccccn2)cc1 | inconclusive: 5.4% | 
CCOC(=O)c1ccccc1OCc1cc(/C=N/NC(=O)c2cccnc2)ccc1OC |  | inconclusive: 10 µM [falling, partial curve]
O=C(/C=C/c1ccco1)NC(=S)Nc1ccc(N2CCCC2)cc1 |  | inconclusive: 20.6 µM [falling, partial curve]
COc1cccc2c(SCC(=O)N/N=C/c3ccc(O)cc3O)cc(C)nc12 |  | inconclusive: 35.5 µM [falling, single point]
CCOC(=O)c1c(C)sc2c1N(C(C)=O)c1cc(Cl)ccc1S2 |  | inconclusive: 12.6 µM [falling, single point]
CN(C)S(=O)(=O)c1cccc(NC(=O)CSc2nc3ccccc3[nH]2)c1 |  | inconclusive: 22.4 µM [falling, single point]
CCN=C1S/C(=C\c2cc(Br)c(O)c(OC)c2)C(=O)N1CC | inactive: 4.82% | 
COc1ccc(CCC(=O)NCc2cnn(C)c2)cc1 | inconclusive: 6.86% | 
CCOC(=O)c1c(C)[nH]c(C(=O)CN2C(=O)NC(CC)(c3ccccc3)C2=O)c1C (stereo not drawn) | inconclusive: 4.2% | 
CC(C)c1cc(CNC(=O)CC2C(=O)NCCN2CC2CCCCC2)on1 (stereo not drawn) | inactive: -9.39% | 
CC(C)C[C@H](NC(=O)C1CCN(S(=O)(=O)c2ccccc2)CC1)C(=O)NCc1ccccn1 | inactive: -3.75% | 
CC(C(=O)Nc1nccs1)c1ccc([N+](=O)[O-])cc1 (stereo not drawn) | inconclusive: -1.56% | 
CN(C)Cc1c(O)ccc2cc(-c3nc4ccccc4n3C)c(=O)oc12 | inactive: 7.21% | 
CCc1nc(NCCN2CCOCC2)c(C#N)c2c1CCCC2 | inactive: -0.101% | 
COc1ccc(C(=O)COC(=O)/C=C/c2ccccc2)cc1 | inconclusive: 0.806% | 
CCC(C)NC(=O)CSc1nnc(-c2cc(-c3cccs3)nc3ccccc23)o1 (stereo not drawn) | inactive: 5.46% | 
O=C(Nc1nnc(C2=COCCO2)o1)c1cccc([N+](=O)[O-])c1 | inconclusive: 8.95% | 

SMILES | activity change, negative = inhibition | Potency
CNC(=O)c1sc(=S)n(-c2ccc(OC)cc2)c1N | inconclusive: 1.7% | 
CC(=O)c1c(C)[nH]c(C(=O)CSc2nnc(NC3CC3)s2)c1C | inactive: -2.29% | 
CN(CC(=O)Nc1ccc(F)cc1)C(=O)C1CCN(S(=O)(=O)c2ccc3c(c2)OCCO3)CC1 | inconclusive: -4.86% | 
CCn1nnnc1SCC(=O)Nc1nc(-c2cccs2)cs1 | inconclusive: 9.87% | 
Cc1ccc(OCCOC(=O)c2sc(=S)n(C)c2C)cc1 | inconclusive: 9.05% | 
O=C(COC(=O)c1ccccc1OCc1ccc(F)cc1)NCC1CCCO1 (stereo not drawn) | inconclusive: -3.47% | 
Cc1oc(-c2ccccc2F)nc1CS(=O)CC(=O)NC1CCCC1 (stereo not drawn) | inactive: 1.26% | 
COc1ccc(/C=N/n2c(C)nc3ccccc3c2=O)cc1OC | inconclusive: 7.09% | 
Cc1ccc(C(=O)N/C(=C\c2ccc(-c3cc(Cl)ccc3Cl)o2)C(=O)NCc2cccnc2)cc1 |  | inconclusive: 31.6 µM [rising, single point]
CSc1nc2ccc3nc(NC(=O)c4ccccc4)sc3c2s1 |  | inconclusive: 18.4 µM [falling, partial curve]
O=C(/C=C/c1ccccc1Cl)N1CCN(c2ncccn2)CC1 | inconclusive: 4.24% | 
COCCNC(=O)C1CCN(Cc2cc3ccccc3n2Cc2ccc(C)cc2)CC1 |  | inconclusive: 35.5 µM [falling, single point]
O=C(/C=C/c1cccs1)NC1CCCC1 |  | inconclusive: 35.5 µM [falling, partial curve, poor fit]
CCOC(=O)c1c(N)sc(C(=O)OC)c1C | inconclusive: -7.02% | 
O=C1c2ccccc2C(=O)N1CCCC[C@]12Cc3ccccc3C(O1)c1c(c3ccccc3oc1=O)O2 |  | inconclusive: 0.708 µM [falling, full curve, poor fit]
Cc1ccc(C)c(-c2csc(NC(=O)C3=COCCO3)n2)c1 | inconclusive: 20.5% | 
Clc1nssc1=Nc1ccccc1 |  | inconclusive: 31.6 µM [rising, single point]
CC1CN(S(=O)(=O)c2cccc(C(F)(F)F)c2)CC(C)O1 (stereo not drawn) | inconclusive: -3.7% | 
C/C(=N\Nc1ccc(Cl)c(C(=O)O)c1)c1ccc(N2CCOCC2)cc1 |  | inconclusive: 31.6 µM [falling, single point]
CN(CCOc1ccc(Br)cc1)C(=O)CNC(=O)c1ccc2ccccc2c1 | inconclusive: -19.7% | 

From PubChem BioAssay AID493014 (National Center for Advancing Translational Sciences (NCATS), 2011)
